From patent US20230416739A1
Results are given in words; binding and its absence hold for the method and conditions named. For part of these data: Binding seen in cells or lysates may run through a third protein. Some results given as binding are weak or reduced against the parent protein; the word gives no strength. For part of these data: Where a sequence is shown, tags or fusion partners need not be part of it. One block for each substance: values may come before it.

By UniProt entry, the sequences of proteins in these tests, tags left out. Where a name states a change or a piece, a line headed by the entry shows the natural chain unless it says otherwise.
UniProt Q01082: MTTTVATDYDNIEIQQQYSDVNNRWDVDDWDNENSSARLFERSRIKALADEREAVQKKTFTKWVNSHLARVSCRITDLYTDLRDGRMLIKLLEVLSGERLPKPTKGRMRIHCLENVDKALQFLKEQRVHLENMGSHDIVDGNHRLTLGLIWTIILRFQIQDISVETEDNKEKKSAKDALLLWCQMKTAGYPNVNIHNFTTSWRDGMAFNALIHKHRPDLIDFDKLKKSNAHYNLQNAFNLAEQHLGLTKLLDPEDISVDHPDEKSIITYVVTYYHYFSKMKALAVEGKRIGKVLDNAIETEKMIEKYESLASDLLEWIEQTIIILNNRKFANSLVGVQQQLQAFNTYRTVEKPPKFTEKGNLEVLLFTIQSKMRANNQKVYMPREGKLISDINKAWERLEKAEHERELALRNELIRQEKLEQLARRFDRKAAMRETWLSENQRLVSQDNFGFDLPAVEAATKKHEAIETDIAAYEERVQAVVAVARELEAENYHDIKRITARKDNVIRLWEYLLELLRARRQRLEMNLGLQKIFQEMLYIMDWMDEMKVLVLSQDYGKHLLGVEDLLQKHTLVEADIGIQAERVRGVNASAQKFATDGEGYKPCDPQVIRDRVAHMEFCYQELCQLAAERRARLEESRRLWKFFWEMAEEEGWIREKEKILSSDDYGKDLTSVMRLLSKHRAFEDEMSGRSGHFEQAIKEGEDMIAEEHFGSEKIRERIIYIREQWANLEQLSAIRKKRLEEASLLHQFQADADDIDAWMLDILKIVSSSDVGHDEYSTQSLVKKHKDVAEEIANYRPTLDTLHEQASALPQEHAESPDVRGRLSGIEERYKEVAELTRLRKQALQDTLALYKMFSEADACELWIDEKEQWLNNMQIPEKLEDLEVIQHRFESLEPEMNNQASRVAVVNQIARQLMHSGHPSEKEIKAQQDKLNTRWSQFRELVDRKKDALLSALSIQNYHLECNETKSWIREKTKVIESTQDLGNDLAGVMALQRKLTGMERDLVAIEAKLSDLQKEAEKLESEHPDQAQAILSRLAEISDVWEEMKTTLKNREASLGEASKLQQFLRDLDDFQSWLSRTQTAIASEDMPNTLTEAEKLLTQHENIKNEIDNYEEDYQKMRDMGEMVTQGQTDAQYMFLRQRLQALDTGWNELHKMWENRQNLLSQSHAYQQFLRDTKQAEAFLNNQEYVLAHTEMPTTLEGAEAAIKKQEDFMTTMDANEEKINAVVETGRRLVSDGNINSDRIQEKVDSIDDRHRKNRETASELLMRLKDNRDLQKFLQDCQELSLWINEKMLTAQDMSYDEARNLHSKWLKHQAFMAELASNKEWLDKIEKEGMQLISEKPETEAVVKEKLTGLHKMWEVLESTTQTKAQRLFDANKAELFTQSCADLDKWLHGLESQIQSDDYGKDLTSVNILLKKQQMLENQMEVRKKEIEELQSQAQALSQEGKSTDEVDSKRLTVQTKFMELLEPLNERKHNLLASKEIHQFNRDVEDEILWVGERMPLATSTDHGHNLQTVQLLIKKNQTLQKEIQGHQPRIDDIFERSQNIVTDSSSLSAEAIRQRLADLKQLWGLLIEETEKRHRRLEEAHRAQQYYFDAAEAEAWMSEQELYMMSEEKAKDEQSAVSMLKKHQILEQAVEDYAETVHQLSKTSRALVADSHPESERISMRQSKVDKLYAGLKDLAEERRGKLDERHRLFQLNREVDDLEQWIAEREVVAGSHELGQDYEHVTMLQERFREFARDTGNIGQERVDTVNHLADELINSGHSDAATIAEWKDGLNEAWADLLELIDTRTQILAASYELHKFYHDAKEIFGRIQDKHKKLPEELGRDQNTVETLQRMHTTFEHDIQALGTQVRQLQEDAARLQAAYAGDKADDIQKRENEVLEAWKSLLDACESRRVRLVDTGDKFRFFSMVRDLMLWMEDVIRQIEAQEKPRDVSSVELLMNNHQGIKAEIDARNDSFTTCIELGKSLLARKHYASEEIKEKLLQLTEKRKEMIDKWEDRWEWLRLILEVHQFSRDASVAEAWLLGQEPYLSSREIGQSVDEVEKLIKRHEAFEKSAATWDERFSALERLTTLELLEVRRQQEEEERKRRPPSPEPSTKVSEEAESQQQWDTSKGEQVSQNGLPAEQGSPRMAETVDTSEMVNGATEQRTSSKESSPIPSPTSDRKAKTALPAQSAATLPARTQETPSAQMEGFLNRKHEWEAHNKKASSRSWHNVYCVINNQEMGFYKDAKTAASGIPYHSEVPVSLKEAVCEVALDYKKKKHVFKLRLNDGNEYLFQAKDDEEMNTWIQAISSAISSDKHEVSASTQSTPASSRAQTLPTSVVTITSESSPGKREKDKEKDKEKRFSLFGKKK

What was measured:
Flag-tagged n-SREBP1 = molecular target: T1, Flag-tagged n-SREBP1 (UniProt P36956); test: co-immunoprecipitation of V5-tagged SPTBN1 fragments with Flag-tagged n-SREBP1
T1 sequence (looked up): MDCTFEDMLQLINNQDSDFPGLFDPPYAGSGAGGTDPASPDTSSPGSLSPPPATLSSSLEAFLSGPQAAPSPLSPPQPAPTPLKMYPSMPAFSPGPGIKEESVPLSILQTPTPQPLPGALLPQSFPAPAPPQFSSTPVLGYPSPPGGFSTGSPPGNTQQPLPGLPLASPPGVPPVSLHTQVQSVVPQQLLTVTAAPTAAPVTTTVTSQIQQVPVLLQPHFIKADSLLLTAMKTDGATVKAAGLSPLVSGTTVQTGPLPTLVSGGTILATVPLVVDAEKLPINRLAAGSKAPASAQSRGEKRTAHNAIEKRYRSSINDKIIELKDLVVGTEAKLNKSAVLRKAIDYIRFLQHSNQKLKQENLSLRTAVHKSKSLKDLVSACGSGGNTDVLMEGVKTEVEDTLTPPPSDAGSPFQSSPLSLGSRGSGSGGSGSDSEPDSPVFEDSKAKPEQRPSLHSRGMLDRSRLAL

pre-SREBP1 (human) [1] = molecular target: T2, pre-SREBP1 (human) (UniProt P36956); test: co-immunoprecipitation from Huh7 cells exposed to palmitic acid
T2 sequence (looked up): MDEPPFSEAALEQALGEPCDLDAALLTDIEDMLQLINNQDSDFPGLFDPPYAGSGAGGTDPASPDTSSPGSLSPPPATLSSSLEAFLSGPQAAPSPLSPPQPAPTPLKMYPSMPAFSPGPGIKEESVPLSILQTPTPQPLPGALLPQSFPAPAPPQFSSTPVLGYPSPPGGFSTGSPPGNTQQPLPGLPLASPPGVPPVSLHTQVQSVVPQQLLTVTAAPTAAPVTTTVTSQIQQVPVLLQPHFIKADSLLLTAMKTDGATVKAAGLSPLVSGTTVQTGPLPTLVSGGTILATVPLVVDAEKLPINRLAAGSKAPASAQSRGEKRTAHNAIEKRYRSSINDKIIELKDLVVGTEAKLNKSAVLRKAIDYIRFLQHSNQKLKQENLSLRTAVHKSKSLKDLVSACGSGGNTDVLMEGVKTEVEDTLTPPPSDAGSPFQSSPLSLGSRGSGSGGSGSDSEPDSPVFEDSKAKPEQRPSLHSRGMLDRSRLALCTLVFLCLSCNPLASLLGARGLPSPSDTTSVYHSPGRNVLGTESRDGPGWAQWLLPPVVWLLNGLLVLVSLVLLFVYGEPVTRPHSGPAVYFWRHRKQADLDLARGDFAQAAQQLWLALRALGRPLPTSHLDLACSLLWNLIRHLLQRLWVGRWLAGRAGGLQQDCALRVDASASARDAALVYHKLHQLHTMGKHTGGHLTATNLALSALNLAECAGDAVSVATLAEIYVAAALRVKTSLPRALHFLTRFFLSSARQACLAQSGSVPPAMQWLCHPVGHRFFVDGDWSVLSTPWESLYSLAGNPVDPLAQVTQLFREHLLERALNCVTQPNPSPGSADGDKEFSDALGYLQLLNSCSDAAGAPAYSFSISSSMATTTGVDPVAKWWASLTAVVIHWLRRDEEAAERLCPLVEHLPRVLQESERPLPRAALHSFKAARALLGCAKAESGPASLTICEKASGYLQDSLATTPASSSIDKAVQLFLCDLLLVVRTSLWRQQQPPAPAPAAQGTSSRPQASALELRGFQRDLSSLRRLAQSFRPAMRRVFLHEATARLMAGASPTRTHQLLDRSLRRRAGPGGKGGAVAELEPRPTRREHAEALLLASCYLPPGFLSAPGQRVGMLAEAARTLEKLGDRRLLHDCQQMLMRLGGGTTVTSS

n-SREBP1 (human) = molecular target: T3, n-SREBP1 (human) (UniProt P36956); test: immunoprecipitation of endogenous SPTBN1 from 3 HCC cell lines, immunoblot
T3 sequence (looked up): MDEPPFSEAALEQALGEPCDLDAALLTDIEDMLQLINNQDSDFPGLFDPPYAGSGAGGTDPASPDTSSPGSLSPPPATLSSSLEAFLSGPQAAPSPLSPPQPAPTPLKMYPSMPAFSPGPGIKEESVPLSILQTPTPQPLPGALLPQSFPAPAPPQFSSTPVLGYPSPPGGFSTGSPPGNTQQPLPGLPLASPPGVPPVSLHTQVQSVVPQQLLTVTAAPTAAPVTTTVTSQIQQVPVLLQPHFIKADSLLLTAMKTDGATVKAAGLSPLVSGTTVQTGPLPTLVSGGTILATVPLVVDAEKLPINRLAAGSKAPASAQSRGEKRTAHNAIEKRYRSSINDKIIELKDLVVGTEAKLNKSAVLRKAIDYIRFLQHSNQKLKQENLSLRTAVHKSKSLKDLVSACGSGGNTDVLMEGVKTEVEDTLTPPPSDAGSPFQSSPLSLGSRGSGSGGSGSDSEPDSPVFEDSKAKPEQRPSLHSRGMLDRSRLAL

pre-SREBP1 (human) [2] = molecular target: T2, pre-SREBP1 (human); test: immunoprecipitation of endogenous SPTBN1 from 3 HCC cell lines, immunoblot; the interaction with pre-SREBP1 occurs in the cytoplasm
Fragment 2 of SREBP1 = molecular target: T4, Fragment 2 of SREBP1 (UniProt P36956); test: co-immunoprecipitation of SREBP1 fragments with full-length V5-tagged SPTBN1
T4 sequence (looked up): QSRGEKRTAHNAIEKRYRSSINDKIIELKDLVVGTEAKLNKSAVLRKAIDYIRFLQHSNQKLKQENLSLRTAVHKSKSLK

binding (Flag-tagged n-SREBP1): binds
Substance: N-SPTBN1 (amino acids M1-D1454) tagged with V5 (from UniProt Q01082 1-1454)

binding (pre-SREBP1 (human) [1]): binds
binding (n-SREBP1 (human)): binds
binding (pre-SREBP1 (human) [2]): binds
Substance: SPTBN1 (from UniProt Q01082 2-2364)

binding (pre-SREBP1 (human) [1]): binds
Substance: N-SPTBN1 (from UniProt Q01082 1-1454)

binding (Fragment 2 of SREBP1): binds
Substance: full-length V5-tagged SPTBN1 (from UniProt Q01082 1-2364)
